No constants are given. Whether binding was seen depends on the method and setting. In cells and extracts the contact can be indirect. Some binding calls cover weakened binding; strength is not graded here.

Amino acid sequences for entries named in this document (tags omitted). A change or cut given only in a name is not applied to a line headed by its entry. Chains listed by the source or under a name are the forms on record and can include a tag or linker.
UniProt P29590: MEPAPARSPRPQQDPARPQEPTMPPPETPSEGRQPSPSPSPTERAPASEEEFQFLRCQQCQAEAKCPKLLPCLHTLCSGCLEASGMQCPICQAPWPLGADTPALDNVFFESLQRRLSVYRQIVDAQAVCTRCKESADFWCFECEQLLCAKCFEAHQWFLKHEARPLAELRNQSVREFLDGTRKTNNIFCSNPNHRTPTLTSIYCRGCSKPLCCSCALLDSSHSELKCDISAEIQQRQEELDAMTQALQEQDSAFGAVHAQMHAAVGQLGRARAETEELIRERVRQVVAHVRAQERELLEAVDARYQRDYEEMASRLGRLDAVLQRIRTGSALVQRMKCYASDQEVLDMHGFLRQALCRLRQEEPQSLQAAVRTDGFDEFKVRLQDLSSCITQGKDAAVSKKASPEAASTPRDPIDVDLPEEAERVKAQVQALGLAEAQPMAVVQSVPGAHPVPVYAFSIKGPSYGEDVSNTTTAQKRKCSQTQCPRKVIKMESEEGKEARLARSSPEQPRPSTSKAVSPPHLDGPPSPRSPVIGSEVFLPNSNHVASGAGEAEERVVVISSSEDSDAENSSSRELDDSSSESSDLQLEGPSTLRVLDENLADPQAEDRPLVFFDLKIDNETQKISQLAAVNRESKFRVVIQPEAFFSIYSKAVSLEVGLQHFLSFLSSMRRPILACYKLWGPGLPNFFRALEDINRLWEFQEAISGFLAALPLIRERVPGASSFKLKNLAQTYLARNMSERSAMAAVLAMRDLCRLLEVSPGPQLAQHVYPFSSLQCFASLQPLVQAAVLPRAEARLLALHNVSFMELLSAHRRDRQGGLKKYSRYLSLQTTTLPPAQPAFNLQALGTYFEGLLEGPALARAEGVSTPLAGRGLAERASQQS
myc-epitope-tagged PML Ib (P29590-14, form named): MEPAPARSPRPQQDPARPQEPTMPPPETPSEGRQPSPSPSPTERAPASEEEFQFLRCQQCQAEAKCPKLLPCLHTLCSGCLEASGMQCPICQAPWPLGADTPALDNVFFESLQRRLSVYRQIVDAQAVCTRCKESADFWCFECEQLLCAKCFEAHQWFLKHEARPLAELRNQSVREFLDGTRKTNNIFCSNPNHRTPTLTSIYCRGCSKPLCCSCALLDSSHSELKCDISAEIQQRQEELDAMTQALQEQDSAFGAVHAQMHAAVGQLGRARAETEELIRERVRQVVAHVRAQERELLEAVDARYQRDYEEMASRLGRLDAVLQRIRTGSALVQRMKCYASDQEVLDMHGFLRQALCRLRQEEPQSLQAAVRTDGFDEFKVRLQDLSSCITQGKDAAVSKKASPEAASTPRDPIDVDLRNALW
V5-epitope-tagged PML IV (P29590, form named): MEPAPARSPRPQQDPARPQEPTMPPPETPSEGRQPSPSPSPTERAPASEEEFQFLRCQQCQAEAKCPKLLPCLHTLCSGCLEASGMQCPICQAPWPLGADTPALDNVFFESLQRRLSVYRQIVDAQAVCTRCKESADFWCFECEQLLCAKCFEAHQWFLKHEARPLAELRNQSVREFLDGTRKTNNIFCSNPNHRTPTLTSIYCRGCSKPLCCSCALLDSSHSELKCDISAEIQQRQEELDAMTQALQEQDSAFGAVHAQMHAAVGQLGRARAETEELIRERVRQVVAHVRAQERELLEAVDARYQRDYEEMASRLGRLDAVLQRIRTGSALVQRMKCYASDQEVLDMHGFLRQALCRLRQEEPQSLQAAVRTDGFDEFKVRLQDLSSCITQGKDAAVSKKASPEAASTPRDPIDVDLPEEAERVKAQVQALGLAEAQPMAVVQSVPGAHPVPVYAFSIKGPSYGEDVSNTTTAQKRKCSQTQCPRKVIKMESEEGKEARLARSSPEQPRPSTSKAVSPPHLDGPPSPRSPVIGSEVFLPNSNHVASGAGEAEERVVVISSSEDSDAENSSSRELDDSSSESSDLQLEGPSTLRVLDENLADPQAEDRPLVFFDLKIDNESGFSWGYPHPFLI

The target in test [1] is V5-epitope-tagged PML IV (human) (UniProt P29590). Nature of the test: co-IP; data not shown; as for V5-PML I, with a V5-epitope-tagged PML IV construct and myc-tagged PML Ib.
The target in test [2] is V5-epitope-tagged PML I (human) (UniProt P29590). In words: co-IP; HEK293 transiently co-transfected, lysed 48 h later in IP buffer (20 mM Tris pH 8.0, 400 mM NaCl, 1 mM EDTA, 1% Triton X-100, 10 mM NaF, 0.5% DOC); precipitated with anti-V5 and protein G-Sepharose, blotted with HRP-conjugated anti-myc.

Take “myc-epitope-tagged PML Ib (from UniProt P29590-14 1-423)”: the binding entry in test [1] and in test [2] was “binds” throughout.

The values above are taken from paper PMC2386554.
